Experimental data reported in the supplement of paper PMC6411743.
± gives the standard deviation of the averaged measurements. The list shows a part of the results, in another mix than the full data.

Sequences of proteins named here, by UniProt entry; tags and fusion partners are left off. A change or cut given only in a name is not applied to a line headed by its entry.
UniProt Q9NUW8, whole entry: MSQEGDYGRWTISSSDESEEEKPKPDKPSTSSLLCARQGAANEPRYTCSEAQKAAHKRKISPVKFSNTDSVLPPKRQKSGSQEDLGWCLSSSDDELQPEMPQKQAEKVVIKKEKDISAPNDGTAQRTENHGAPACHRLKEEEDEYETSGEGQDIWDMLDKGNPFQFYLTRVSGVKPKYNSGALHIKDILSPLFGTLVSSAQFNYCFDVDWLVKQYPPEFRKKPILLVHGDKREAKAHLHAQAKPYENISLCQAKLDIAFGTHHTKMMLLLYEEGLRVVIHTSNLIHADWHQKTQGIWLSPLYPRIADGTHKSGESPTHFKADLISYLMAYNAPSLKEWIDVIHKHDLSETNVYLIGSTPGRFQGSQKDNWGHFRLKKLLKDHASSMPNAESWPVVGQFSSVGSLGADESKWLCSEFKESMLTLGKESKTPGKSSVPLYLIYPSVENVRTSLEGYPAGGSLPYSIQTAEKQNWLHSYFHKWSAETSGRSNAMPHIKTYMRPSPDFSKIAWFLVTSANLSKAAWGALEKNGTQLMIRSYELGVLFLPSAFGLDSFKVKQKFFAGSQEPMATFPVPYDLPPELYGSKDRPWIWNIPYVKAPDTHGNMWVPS
UniProt Q9P0B6: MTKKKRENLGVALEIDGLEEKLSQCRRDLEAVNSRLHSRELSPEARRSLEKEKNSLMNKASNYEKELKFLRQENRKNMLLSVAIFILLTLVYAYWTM
UniProt Q9NX07: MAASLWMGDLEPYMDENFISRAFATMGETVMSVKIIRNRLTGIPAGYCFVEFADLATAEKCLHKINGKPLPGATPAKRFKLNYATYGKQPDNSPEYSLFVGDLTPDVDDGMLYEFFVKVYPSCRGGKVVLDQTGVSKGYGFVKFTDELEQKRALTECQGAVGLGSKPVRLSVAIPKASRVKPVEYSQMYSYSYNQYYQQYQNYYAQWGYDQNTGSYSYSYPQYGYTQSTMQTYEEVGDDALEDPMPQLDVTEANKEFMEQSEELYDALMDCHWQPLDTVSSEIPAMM
UniProt Q9NVR5: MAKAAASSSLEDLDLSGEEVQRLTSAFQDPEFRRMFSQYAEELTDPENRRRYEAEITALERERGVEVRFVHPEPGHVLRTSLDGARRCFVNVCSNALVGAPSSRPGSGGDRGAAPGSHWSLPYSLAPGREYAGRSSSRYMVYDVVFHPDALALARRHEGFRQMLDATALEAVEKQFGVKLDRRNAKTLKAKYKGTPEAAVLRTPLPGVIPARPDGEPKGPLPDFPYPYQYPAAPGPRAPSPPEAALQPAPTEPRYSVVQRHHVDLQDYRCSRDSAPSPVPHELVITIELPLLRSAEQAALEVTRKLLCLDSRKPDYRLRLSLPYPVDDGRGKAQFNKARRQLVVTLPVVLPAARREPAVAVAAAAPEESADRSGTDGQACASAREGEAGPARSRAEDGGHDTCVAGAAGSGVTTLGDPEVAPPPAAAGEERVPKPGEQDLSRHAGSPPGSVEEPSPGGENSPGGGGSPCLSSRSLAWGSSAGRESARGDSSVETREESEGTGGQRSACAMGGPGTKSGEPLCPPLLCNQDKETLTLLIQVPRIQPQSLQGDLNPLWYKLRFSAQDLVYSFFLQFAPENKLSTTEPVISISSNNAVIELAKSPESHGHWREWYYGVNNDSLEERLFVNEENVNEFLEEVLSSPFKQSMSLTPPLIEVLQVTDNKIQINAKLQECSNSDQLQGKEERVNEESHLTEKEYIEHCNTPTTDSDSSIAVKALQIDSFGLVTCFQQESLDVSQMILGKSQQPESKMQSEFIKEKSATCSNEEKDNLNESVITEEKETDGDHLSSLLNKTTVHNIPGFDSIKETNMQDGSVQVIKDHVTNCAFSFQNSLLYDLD
UniProt Q9NUP1: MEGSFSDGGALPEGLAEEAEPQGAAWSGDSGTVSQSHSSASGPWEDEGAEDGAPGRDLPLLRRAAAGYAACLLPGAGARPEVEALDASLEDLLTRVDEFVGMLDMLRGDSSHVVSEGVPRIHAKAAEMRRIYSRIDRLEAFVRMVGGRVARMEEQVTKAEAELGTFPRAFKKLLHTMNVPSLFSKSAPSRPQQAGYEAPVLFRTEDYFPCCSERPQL
UniProt Q9NRB3: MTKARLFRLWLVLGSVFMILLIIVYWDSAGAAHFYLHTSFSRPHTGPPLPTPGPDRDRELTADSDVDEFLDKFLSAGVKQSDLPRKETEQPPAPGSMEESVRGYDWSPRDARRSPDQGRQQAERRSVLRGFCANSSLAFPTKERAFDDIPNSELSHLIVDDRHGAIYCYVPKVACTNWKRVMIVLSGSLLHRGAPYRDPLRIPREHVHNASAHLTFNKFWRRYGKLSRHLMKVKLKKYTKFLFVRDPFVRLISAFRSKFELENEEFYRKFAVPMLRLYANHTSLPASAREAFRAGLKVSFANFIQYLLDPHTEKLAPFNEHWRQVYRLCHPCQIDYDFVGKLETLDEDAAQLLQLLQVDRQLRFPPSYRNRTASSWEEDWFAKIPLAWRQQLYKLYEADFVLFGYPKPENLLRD
UniProt Q9NXR7, whole entry: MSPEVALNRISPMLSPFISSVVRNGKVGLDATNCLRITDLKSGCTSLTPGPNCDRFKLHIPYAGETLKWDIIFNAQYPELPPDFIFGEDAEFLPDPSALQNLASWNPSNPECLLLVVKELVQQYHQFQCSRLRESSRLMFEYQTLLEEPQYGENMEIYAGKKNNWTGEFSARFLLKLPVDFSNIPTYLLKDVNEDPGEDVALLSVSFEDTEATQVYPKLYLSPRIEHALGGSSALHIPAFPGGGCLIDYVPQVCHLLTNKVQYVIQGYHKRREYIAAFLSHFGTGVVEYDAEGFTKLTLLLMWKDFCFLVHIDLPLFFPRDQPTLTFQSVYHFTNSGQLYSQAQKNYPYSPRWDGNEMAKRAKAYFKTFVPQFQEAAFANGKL
UniProt Q9NS69: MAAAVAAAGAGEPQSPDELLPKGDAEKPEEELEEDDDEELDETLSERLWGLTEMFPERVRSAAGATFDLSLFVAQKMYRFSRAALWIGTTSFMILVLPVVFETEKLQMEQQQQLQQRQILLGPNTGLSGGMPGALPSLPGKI
UniProt Q9NV96: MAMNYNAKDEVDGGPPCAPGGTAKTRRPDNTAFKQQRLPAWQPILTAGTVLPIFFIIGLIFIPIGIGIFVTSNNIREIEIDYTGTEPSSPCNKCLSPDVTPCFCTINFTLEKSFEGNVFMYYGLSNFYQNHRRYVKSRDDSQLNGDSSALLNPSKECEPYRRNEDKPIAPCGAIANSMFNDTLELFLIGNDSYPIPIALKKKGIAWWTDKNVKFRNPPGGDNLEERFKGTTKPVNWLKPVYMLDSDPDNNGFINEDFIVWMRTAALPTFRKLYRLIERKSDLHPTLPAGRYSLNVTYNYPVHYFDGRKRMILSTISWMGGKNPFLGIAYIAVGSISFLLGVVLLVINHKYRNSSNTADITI
UniProt Q9NVN8: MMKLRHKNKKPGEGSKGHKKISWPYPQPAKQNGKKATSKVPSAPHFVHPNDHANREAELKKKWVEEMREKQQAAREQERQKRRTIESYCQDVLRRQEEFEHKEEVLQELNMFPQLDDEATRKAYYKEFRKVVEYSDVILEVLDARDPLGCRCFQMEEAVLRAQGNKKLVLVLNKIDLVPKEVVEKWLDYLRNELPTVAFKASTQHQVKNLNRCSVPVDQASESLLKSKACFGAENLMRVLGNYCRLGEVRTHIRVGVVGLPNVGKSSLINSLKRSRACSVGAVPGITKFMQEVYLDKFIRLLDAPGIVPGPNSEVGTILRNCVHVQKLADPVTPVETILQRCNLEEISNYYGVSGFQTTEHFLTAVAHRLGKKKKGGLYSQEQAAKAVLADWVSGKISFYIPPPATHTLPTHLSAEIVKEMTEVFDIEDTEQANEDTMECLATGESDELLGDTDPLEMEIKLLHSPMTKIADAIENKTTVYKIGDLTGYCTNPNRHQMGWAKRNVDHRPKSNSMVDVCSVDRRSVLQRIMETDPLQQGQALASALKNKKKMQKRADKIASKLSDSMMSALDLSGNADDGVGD
UniProt Q9NWZ5: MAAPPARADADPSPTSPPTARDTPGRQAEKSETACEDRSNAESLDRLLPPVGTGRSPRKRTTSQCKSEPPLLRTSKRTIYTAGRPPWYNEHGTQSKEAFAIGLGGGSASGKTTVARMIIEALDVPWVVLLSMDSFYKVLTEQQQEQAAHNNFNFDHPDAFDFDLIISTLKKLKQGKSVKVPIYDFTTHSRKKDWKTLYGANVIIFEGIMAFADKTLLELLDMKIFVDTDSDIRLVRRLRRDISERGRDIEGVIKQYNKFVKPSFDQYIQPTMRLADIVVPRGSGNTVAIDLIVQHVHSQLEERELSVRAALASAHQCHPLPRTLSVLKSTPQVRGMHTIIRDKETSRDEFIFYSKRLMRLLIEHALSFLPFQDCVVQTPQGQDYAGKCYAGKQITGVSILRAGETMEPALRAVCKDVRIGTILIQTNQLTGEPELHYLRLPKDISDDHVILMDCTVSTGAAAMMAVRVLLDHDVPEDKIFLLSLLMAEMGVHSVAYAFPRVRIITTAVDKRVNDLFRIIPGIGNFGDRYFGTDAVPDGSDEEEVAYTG
UniProt Q9NYR9: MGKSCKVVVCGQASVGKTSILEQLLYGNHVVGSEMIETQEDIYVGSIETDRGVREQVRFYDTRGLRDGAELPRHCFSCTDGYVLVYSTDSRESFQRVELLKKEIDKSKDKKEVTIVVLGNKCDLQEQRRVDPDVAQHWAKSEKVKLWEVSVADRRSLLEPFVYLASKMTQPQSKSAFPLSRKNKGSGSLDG
UniProt Q9NRG9: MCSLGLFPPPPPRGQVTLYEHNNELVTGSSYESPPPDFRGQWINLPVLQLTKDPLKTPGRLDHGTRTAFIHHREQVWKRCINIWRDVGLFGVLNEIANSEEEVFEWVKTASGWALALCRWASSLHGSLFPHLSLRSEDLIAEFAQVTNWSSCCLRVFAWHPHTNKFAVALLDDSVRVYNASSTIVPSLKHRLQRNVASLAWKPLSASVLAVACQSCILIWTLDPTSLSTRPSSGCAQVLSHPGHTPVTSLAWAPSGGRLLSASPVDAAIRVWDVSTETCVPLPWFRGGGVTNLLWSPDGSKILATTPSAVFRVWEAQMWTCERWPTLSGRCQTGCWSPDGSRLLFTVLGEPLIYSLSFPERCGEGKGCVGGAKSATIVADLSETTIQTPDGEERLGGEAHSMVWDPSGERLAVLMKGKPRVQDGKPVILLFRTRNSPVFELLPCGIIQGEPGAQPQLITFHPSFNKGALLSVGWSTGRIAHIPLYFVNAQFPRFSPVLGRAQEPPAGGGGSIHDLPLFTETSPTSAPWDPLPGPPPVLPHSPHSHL
UniProt Q9UBS0: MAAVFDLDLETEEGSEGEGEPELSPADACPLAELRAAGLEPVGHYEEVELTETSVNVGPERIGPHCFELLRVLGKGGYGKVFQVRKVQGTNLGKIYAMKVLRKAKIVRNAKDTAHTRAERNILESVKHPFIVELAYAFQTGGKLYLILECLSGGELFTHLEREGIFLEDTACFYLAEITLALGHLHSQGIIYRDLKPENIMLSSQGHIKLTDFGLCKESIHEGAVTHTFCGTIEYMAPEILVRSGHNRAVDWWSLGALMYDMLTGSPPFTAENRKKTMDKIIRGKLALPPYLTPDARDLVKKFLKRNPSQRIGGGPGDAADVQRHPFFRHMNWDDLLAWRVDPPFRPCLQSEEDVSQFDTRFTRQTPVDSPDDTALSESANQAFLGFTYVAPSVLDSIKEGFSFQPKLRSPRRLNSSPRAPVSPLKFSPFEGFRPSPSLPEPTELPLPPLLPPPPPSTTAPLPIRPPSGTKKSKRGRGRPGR
UniProt Q9NRY5: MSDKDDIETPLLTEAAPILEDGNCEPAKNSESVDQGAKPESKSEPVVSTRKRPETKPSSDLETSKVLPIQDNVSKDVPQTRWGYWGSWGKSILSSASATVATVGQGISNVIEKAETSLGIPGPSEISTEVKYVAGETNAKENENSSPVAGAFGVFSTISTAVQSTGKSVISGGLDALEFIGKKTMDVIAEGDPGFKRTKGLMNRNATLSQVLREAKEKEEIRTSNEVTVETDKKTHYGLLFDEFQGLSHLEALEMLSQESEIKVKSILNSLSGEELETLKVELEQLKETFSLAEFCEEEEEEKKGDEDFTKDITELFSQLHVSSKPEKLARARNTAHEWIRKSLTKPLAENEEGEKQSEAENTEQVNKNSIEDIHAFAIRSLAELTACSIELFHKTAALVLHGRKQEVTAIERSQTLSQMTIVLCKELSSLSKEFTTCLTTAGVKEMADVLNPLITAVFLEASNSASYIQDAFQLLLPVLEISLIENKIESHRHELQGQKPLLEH
UniProt Q9P0J7: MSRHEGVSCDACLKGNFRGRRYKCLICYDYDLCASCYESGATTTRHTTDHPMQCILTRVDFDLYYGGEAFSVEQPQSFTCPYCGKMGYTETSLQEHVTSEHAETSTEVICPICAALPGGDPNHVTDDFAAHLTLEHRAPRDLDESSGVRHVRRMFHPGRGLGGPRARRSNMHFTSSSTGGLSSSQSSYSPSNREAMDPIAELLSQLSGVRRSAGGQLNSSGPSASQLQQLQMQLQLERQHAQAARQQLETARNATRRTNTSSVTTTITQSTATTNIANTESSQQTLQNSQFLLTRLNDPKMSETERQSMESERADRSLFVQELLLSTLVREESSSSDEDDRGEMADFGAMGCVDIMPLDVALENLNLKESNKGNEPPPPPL

Compound: Nc1ncnc2c1ncn2[C@@H]1O[C@H](COP(=O)(O)OP(=O)(O)NP(=O)(O)O)[C@@H](O)[C@H]1O [adenylyl imidodiphosphate]
Test: NP40-soluble protein abundance relative to vehicle (solubility fold change) (ratio); higher = more soluble protein in presence of AMP-PNP
Outline: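 Crude Jurkat lysate, prepared by Dounce homogenisation, was exposed to eight concentrations from 0.1 to 10 mM for 10 min at room temperature and then 3 min at 37 °C. Solubilisation used 0.8% NP40 with benzonase for 60 min at 4 °C, followed by ultracentrifugation and TMT labelling of the supernatant for LC-MS/MS. After vsn normalisation of intensities, each value is the fold change against the detergent-processed vehicle within each replicate, across three independent experiments.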

Target	NP40-soluble protein abundance (concentration: 1mM)	NP40-soluble protein abundance (concentration: 2mM)	NP40-soluble protein abundance (concentration: 4mM)	NP40-soluble protein abundance (concentration: 6mM)	NP40-soluble protein abundance (concentration: 8mM)	NP40-soluble protein abundance (concentration: 10mM)
UniProt Q9UBD5 and related entries	1.01 ± 0.021	1.01 ± 0.02	1.03 ± 0.037	0.994 ± 0.027	1.004 ± 0.0078	1.01 ± 0.041
UniProt Q9NZN5-2|Q9NZN5	1.03 ± 0.036	1.06 ± 0.012	1.05 ± 0.018	0.986 ± 0.028	0.957 ± 0.011	0.995 ± 0.013
UniProt Q9NQW7-3	1.02 ± 0.026	0.944 ± 0.083	0.994 ± 0.032	0.952 ± 0.02	0.978 ± 0.03	0.918 ± 0.045
UniProt Q9NZB2 and related entries	0.999 ± 0.08	1.01 ± 0.043	1 ± 0.078	1 ± 0.061	1.02 ± 0.06	1.05 ± 0.066
PIH1D1 (UniProt Q9NWS0)	1.01 ± 0.032	1.048 ± 0.0085	1.03 ± 0.04	0.98 ± 0.06	0.977 ± 0.019	0.983 ± 0.02
TDP1 (UniProt Q9NUW8)	1.03 ± 0.015	1.02 ± 0.019	1.01 ± 0.018	0.996 ± 0.015	1 ± 0.031	0.987 ± 0.032
EIF2B3 (UniProt Q9NR50)	0.937 ± 0.017	0.887 ± 0.095	0.938 ± 0.021	0.9434 ± 0.0087	0.961 ± 0.027	0.947 ± 0.046
UniProt Q9P0B6	1.03 ± 0.042	1.09 ± 0.058	1.01 ± 0.053	0.983 ± 0.063	0.999 ± 0.041	0.977 ± 0.099
ADPRHL2 (UniProt Q9NX46)	0.979 ± 0.041	0.976 ± 0.035	0.978 ± 0.022	0.986 ± 0.029	0.959 ± 0.019	0.98 ± 0.03
UniProt Q9NW64	1.1 ± 0.026	1.11 ± 0.025	1.12 ± 0.032	1.14 ± 0.032	1.18 ± 0.02	1.18 ± 0.029
UniProt Q9NPL8	0.968 ± 0.015	0.93 ± 0.016	0.972 ± 0.051	0.998 ± 0.011	0.975 ± 0.018	0.953 ± 0.029
UniProt Q9NUV9 and related entries	1.08 ± 0.023	1.06 ± 0.019	1.02 ± 0.039	1.02 ± 0.068	1.02 ± 0.06	1.03 ± 0.043
CHMP5 (UniProt Q9NZZ3)	0.935 ± 0.088	0.953 ± 0.083	0.835 ± 0.044	0.836 ± 0.11	0.89 ± 0.024	0.874 ± 0.055
FAM118A (UniProt Q9NWS6)	0.992 ± 0.012	1.003 ± 0.0048	1 ± 0.023	1 ± 0.012	0.998 ± 0.048	0.964 ± 0.039
UniProt Q9NX55	1.05 ± 0.014	1.08 ± 0.045	1.059 ± 0.0087	1.01 ± 0.015	1.02 ± 0.011	1.017 ± 0.008
UniProt Q9P2X0-2|Q9P2X0	0.968 ± 0.026	0.929 ± 0.032	0.957 ± 0.027	0.98 ± 0.04	1 ± 0.019	0.933 ± 0.018
AGPAT5 (UniProt Q9NUQ2)	0.992 ± 0.051	0.936 ± 0.094	1 ± 0.078	0.949 ± 0.061	0.961 ± 0.057	0.965 ± 0.054
UniProt Q9NX07 and related entries	0.971 ± 0.035	0.961 ± 0.042	0.984 ± 0.066	0.957 ± 0.035	0.937 ± 0.032	0.95 ± 0.065
UniProt Q9NVA1 and related entries	1.01 ± 0.043	1 ± 0.047	1.02 ± 0.049	0.961 ± 0.011	0.996 ± 0.014	0.995 ± 0.024
UniProt Q9NVR5	0.996 ± 0.025	1.02 ± 0.04	0.965 ± 0.022	0.981 ± 0.028	0.968 ± 0.036	0.96 ± 0.059

Target	NP40-soluble protein abundance (concentration: 1mM)	NP40-soluble protein abundance (concentration: 2mM)	NP40-soluble protein abundance (concentration: 4mM)	NP40-soluble protein abundance (concentration: 6mM)	NP40-soluble protein abundance (concentration: 8mM)	NP40-soluble protein abundance (concentration: 10mM)
UniProt Q9NUP1	1.01 ± 0.054	1.03 ± 0.054	1.02 ± 0.029	1.01 ± 0.024	0.999 ± 0.026	0.998 ± 0.033
UniProt Q9NYJ8	0.885 ± 0.076	0.87 ± 0.05	0.9 ± 0.068	0.94 ± 0.062	0.945 ± 0.089	0.892 ± 0.092
UniProt Q9NWU2	0.96 ± 0.045	0.999 ± 0.04	0.964 ± 0.052	0.892 ± 0.015	0.884 ± 0.0097	0.868 ± 0.036
UniProt Q9P0J1 and related entries	0.991 ± 0.031	0.952 ± 0.085	0.972 ± 0.026	0.957 ± 0.036	0.944 ± 0.043	0.936 ± 0.028
CHST12 (UniProt Q9NRB3)	1.001 ± 0.0077	0.999 ± 0.01	0.9935 ± 0.0064	1 ± 0.016	1.017 ± 0.0078	1.011 ± 0.0063
UniProt Q9NUM4 and related entries	0.973 ± 0.031	0.949 ± 0.032	0.992 ± 0.022	0.9677 ± 0.0052	0.967 ± 0.029	0.923 ± 0.04
UniProt Q9NXR7	1.03 ± 0.056	1.03 ± 0.063	1.04 ± 0.072	0.993 ± 0.041	0.994 ± 0.042	0.995 ± 0.044
TOMM22 (UniProt Q9NS69)	1.02 ± 0.046	1.05 ± 0.071	1.01 ± 0.024	0.983 ± 0.023	0.986 ± 0.014	0.982 ± 0.037
UniProt Q9NW08 and related entries	0.975 ± 0.02	0.897 ± 0.082	0.961 ± 0.055	0.932 ± 0.04	0.939 ± 0.051	0.921 ± 0.085
UniProt Q9NV96 and related entries	0.973 ± 0.067	1.03 ± 0.089	0.961 ± 0.048	0.995 ± 0.026	0.961 ± 0.056	0.969 ± 0.043
GNL3L (UniProt Q9NVN8)	1.05 ± 0.037	1.05 ± 0.031	1.05 ± 0.058	1.07 ± 0.034	1.07 ± 0.062	1.1 ± 0.087
UCKL1 (UniProt Q9NWZ5)	1 ± 0.014	1 ± 0.035	0.996 ± 0.022	0.95 ± 0.014	0.955 ± 0.0061	0.931 ± 0.023
METTL1 (UniProt Q9UBP6)	0.972 ± 0.013	0.996 ± 0.022	1.01 ± 0.032	1 ± 0.05	1.01 ± 0.024	0.98 ± 0.018
PDRG1 (UniProt Q9NUG6)	0.995 ± 0.025	0.998 ± 0.039	0.968 ± 0.0092	0.915 ± 0.016	0.904 ± 0.027	0.8644 ± 0.0075
UVRAG (UniProt Q9P2Y5)	0.975 ± 0.013	0.936 ± 0.046	0.984 ± 0.037	0.983 ± 0.031	1.01 ± 0.043	0.97 ± 0.038
UniProt Q9NYR9 and related entries	1.06 ± 0.032	1.059 ± 0.009	1.02 ± 0.05	1.02 ± 0.046	1.01 ± 0.043	1.03 ± 0.04
RBM27 (UniProt Q9P2N5)	1.04 ± 0.021	1.15 ± 0.062	1.13 ± 0.05	1.24 ± 0.12	1.25 ± 0.11	1.34 ± 0.16
AVEN (UniProt Q9NQS1)	0.961 ± 0.061	1.02 ± 0.041	0.938 ± 0.078	0.916 ± 0.03	0.921 ± 0.039	0.959 ± 0.035
MED4 (UniProt Q9NPJ6)	1.01 ± 0.011	1.007 ± 0.0065	1.01 ± 0.022	1.01 ± 0.042	0.999 ± 0.039	0.992 ± 0.041
RERE (UniProt Q9P2R6)	1.019 ± 0.0016	1.06 ± 0.019	1.02 ± 0.019	1.02 ± 0.024	1.01 ± 0.036	1.02 ± 0.038

Target	NP40-soluble protein abundance (concentration: 1mM)	NP40-soluble protein abundance (concentration: 2mM)	NP40-soluble protein abundance (concentration: 4mM)	NP40-soluble protein abundance (concentration: 6mM)	NP40-soluble protein abundance (concentration: 8mM)	NP40-soluble protein abundance (concentration: 10mM)
UniProt Q9NRG9 and related entries	0.964 ± 0.04	0.925 ± 0.053	0.948 ± 0.056	0.972 ± 0.034	0.96 ± 0.051	0.958 ± 0.036
SMYD2 (UniProt Q9NRG4)	0.997 ± 0.027	0.974 ± 0.042	0.997 ± 0.05	0.982 ± 0.064	0.989 ± 0.046	0.931 ± 0.055
UniProt Q9NW81 and related entries	1 ± 0.03	1.01 ± 0.041	1.01 ± 0.053	0.975 ± 0.011	0.982 ± 0.042	1.01 ± 0.041
FAM49B (UniProt Q9NUQ9)	1 ± 0.026	1.03 ± 0.055	0.985 ± 0.04	1 ± 0.03	0.967 ± 0.035	0.981 ± 0.053
UniProt Q9NUQ3	1.03 ± 0.023	1.09 ± 0.066	1.04 ± 0.029	1.07 ± 0.03	1.04 ± 0.013	1.04 ± 0.03
UniProt Q9NQH7 and related entries	1.02 ± 0.011	0.964 ± 0.022	1.038 ± 0.0069	1.04 ± 0.053	1.07 ± 0.062	1.04 ± 0.034
UniProt Q9P0I2	0.975 ± 0.028	0.986 ± 0.02	0.97 ± 0.041	0.985 ± 0.0057	0.998 ± 0.0073	0.996 ± 0.0084
UniProt Q9NSI2 and related entries	0.9952 ± 0.0042	0.9892 ± 0.0017	0.9743 ± 0.0093	0.978 ± 0.028	0.978 ± 0.016	0.972 ± 0.028
UniProt Q9UBS0	1.09 ± 0.05	1.09 ± 0.1	1.1 ± 0.09	1.09 ± 0.035	1.07 ± 0.036	1.06 ± 0.043
FAM114A2 (UniProt Q9NRY5)	1.06 ± 0.023	1.07 ± 0.058	0.999 ± 0.023	0.974 ± 0.041	0.946 ± 0.021	0.936 ± 0.018
UniProt Q9NW75 and related entries	1.03 ± 0.025	1.05 ± 0.067	1.03 ± 0.033	1.05 ± 0.069	1.05 ± 0.075	1.07 ± 0.069
USE1 (UniProt Q9NZ43)	1 ± 0.017	1.06 ± 0.053	0.9922 ± 0.0053	0.974 ± 0.03	0.95 ± 0.02	0.986 ± 0.028
HIF1AN (UniProt Q9NWT6)	1.02 ± 0.018	0.981 ± 0.043	1 ± 0.027	0.973 ± 0.038	1 ± 0.011	0.964 ± 0.027
WDR70 (UniProt Q9NW82)	1.03 ± 0.031	1.02 ± 0.034	1.02 ± 0.03	1.025 ± 0.0076	1.04 ± 0.017	1.03 ± 0.02
UniProt Q9NXE8	0.978 ± 0.043	0.9814 ± 0.0032	0.956 ± 0.043	0.995 ± 0.051	0.999 ± 0.059	0.992 ± 0.022
EXOSC3 (UniProt Q9NQT5)	1.07 ± 0.011	1.062 ± 0.0032	1.11 ± 0.053	1.15 ± 0.056	1.15 ± 0.085	1.2 ± 0.16
UniProt Q9NR31 and related entries	0.905 ± 0.053	0.816 ± 0.054	0.835 ± 0.02	0.854 ± 0.041	0.884 ± 0.022	0.812 ± 0.043
KCMF1 (UniProt Q9P0J7)	0.969 ± 0.048	0.981 ± 0.046	0.964 ± 0.069	0.988 ± 0.071	0.951 ± 0.078	0.994 ± 0.12
TBC1D22B (UniProt Q9NU19)	0.99 ± 0.013	1.01 ± 0.027	1.01 ± 0.033	1 ± 0.026	1 ± 0.014	1.01 ± 0.029
UniProt Q9NRG7-2|Q9NRG7	0.915 ± 0.047	0.877 ± 0.053	0.917 ± 0.044	0.911 ± 0.063	0.903 ± 0.072	0.881 ± 0.043
